Measured values from the supplement of paper PMC10849652.
This is one part of the list.

By UniProt entry, the sequences of proteins in these tests, tags left out. Where a name states a change or a piece, a line headed by the entry shows the natural chain unless it says otherwise.
UniProt Q92966: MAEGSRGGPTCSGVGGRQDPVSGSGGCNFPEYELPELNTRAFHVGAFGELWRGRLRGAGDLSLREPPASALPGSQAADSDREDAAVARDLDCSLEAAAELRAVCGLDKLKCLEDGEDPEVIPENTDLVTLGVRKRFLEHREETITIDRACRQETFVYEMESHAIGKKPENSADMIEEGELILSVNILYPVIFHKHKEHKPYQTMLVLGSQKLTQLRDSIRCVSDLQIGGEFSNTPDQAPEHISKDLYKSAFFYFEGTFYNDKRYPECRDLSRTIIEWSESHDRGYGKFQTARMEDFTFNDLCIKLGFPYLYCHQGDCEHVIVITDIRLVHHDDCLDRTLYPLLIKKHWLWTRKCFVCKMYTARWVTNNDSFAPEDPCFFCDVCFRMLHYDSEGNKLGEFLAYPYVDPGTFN
UniProt O75971: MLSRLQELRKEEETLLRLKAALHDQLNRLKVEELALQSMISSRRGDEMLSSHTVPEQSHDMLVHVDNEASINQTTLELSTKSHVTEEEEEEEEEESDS
UniProt P0DMW3: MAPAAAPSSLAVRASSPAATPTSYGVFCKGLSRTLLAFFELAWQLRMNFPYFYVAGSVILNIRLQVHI
UniProt B2RUZ4: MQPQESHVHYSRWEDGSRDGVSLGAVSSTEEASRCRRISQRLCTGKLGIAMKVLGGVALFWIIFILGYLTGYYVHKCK
UniProt Q8WVI0: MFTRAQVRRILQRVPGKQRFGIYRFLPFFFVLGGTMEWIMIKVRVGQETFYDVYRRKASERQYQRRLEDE
UniProt Q3SY56: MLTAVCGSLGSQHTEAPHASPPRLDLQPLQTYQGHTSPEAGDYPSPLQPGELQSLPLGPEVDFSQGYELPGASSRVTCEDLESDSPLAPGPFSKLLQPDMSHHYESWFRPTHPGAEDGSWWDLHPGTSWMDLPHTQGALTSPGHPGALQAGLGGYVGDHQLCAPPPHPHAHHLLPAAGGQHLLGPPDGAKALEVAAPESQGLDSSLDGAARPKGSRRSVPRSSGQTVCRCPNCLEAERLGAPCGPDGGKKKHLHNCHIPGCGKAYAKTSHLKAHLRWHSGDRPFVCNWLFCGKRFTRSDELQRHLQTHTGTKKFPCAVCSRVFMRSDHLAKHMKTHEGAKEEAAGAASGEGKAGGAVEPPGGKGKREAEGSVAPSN

How the values were obtained:
Test in all cases: log2 fold change, soluble protein after heating vs DMSO (PISA); higher = thermal stabilisation; K562 lysate, 10 uM; active = over 0.2 and 3.5 SD of the protein, either way, in both replicates (recomputed)
[1] = compound: C1=CC=C(C=C1)[C@H](COC2=CC3=C(C=C2)NC(=O)N3)NC(=O)C4=CC=CN(C4=O)CC5=CC(=C(C=C5)F)F
In short: (§1)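 Thermal stability, expressed as log-two fold change relative to solvent controls, is given from duplicates. Crude K562 extract in PBS pH 7.4 with 1 mM MgCl2, at 1 mg/mL protein, was treated with 10 μM compound for 30 min and heated in aliquots for 3 min across 48°C-58°C. After pooling, adjustment to 0.5% NP-40 at 4°C and centrifugation at 21,000xg for 90 min, supernatant protein was measured by TMTpro 16plex LC-MS/MS with channel sums equalised.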

[2] = compound: CC1=C(SC2=C1C(=N[C@H](C3=NN=C(N32)C)CC(=O)N)C4=CC=C(C=C4)Cl)C
In short: as §1

[3] = compound: Cc1sc2c(c1C)C(c1ccc(Cl)cc1)=N[C@@H](CC(=O)OC(C)(C)C)c1nnc(C)n1-2
In short: as §1

[4] = compound: c1ccc([C@@H]2C[C@H]2NC2CCNCC2)cc1
In short: as §1

[5] = compound: CC1=C2C(=CC=C1)N=C(N(C2=O)C3=CC=CC=C3C)CN4C=NC5=C(N=CN=C54)N
In short: as §1

Target | log2 fold change [1] | log2 fold change [2] | log2 fold change [3] | log2 fold change [4] | log2 fold change [5]
SNAPC3 (UniProt Q92966) | inactive: 0.118 | inactive: -0.312 | inactive: -0.076 | inactive: 0.05 | –
SNRPN isoform 2 (UniProt P63162) | – | – | – | inactive: -0.201 | inactive: 0.076
SNAPC5 (UniProt O75971) | – | – | – | inactive: 0.129 | inactive: -0.036
SMIM10L1 (UniProt P0DMW3) | – | – | – | inactive: -0.018 | –
SMIM1 (UniProt B2RUZ4) | inactive: 0.053 | inactive: -0.054 | – | inactive: -0.028 | –
SMIM4 (UniProt Q8WVI0) | inactive: 0.078 | inactive: 0.05 | – | inactive: 0.249 | –
SP6 (UniProt Q3SY56) | – | – | inactive: -0.108 | inactive: -0.005 | inactive: 0.013
